{"source": "patent US4871717", "about": "(dated 1989)", "experiment": "general procedure: Boc solid-phase peptide synthesis; Benzhydrylamine-polystyrene resin; diisopropylcarbodiimide", "settings": "whole synthesis, scale 0.5 mmole", "data": [{"substance": "MPA-Tyr-D-Trp-Lys-Val-Cys-Thr-NH2", "values": [{"measurement": "isolated mass", "value": 129, "unit": "mg"}]}]}
